Source: publication PMC9465963
Results are given in words; binding and its absence hold for the method and conditions named. In cells and extracts the contact can be indirect. Some results given as binding are weak or reduced against the parent protein; the word gives no strength. For some of these results: Where a sequence is shown, tags or fusion partners need not be part of it.

The chains behind the UniProt entries cited, without tags or fusion partners.
UniProt Q9BZB8: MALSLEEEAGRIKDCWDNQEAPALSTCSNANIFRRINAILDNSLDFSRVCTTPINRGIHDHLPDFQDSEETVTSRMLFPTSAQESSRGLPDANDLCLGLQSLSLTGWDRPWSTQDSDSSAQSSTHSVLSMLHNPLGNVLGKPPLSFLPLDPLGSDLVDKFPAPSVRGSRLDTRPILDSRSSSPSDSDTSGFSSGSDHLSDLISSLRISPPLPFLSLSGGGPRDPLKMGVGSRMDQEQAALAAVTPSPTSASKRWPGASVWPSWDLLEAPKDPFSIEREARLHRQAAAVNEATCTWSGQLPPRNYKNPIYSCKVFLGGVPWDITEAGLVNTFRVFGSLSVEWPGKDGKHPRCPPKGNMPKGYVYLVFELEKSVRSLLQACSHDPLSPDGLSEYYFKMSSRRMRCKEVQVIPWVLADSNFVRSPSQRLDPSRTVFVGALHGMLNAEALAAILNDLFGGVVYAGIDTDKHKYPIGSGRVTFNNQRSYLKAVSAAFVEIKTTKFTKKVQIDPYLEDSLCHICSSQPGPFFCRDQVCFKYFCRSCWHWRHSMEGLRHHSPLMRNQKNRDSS
UniProt A5YKK6: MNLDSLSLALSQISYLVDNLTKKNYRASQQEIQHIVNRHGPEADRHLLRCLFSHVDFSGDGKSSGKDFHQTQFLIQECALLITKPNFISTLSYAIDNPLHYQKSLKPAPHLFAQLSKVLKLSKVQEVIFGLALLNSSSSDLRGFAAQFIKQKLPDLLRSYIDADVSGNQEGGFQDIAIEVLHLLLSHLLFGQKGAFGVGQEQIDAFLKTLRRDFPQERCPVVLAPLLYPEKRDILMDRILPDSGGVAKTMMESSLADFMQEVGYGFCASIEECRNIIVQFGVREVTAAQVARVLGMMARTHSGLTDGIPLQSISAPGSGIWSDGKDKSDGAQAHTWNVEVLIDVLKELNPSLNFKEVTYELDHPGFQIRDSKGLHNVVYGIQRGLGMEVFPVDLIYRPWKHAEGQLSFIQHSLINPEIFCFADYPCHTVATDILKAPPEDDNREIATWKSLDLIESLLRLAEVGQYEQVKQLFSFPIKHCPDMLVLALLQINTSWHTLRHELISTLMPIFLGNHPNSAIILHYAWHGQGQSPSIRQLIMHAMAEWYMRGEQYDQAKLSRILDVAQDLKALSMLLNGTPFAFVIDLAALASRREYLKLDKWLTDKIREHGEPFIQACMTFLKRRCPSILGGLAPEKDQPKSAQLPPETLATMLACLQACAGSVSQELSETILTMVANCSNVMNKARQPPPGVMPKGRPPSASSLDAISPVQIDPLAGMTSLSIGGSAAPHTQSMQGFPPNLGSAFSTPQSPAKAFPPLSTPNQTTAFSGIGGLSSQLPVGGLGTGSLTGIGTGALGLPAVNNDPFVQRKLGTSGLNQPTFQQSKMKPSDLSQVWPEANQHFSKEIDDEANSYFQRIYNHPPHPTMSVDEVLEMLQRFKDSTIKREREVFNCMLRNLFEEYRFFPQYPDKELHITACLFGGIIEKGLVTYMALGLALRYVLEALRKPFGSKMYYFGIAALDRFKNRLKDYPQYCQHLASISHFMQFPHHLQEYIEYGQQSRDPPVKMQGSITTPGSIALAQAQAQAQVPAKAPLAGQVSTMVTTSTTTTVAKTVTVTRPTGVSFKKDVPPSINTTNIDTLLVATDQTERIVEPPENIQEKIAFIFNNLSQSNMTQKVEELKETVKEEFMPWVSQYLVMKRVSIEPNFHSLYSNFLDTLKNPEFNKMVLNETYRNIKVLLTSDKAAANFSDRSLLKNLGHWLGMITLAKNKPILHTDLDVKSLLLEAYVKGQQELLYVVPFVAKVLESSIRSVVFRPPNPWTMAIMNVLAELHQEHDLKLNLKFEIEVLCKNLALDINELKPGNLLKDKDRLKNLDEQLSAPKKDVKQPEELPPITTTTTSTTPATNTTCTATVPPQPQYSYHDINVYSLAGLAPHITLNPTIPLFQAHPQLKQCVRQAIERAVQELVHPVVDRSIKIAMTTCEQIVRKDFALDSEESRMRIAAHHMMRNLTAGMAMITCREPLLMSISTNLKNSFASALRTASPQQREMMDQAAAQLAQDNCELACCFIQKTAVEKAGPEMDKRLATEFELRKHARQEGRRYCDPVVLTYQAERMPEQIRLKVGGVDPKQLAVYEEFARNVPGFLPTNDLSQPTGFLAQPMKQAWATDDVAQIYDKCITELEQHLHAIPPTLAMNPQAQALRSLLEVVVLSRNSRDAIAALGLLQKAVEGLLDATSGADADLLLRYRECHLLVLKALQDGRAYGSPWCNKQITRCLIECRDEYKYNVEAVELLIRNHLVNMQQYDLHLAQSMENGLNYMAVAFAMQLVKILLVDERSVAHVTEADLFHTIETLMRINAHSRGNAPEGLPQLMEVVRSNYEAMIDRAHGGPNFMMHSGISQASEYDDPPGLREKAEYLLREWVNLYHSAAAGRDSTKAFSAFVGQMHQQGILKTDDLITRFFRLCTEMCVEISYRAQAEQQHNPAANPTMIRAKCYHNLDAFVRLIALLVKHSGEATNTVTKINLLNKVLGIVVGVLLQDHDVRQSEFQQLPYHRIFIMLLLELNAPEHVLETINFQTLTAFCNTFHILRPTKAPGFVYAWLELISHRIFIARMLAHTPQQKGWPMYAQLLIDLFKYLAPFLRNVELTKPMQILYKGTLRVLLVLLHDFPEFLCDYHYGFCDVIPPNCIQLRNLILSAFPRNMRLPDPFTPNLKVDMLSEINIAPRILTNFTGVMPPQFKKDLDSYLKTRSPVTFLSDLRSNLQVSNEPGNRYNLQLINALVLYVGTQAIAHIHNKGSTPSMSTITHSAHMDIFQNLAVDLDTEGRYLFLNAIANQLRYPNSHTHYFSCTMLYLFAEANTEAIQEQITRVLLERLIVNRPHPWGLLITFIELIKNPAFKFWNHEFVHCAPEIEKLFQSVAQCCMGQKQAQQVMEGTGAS
UniProt Q9NZN8: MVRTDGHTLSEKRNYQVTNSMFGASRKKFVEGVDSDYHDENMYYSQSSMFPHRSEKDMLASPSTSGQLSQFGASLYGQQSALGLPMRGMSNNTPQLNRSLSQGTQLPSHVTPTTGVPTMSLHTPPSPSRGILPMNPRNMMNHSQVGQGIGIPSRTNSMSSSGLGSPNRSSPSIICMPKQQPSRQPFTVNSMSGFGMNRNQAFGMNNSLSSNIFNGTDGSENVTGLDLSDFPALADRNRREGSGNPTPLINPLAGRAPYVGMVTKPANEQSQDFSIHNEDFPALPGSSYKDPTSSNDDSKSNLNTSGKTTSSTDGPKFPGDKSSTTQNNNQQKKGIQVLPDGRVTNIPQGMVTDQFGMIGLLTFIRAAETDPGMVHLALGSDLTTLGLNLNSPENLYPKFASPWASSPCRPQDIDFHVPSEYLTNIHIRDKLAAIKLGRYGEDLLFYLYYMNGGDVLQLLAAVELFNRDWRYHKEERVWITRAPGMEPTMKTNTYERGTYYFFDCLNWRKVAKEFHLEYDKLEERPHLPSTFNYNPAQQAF
UniProt Q9UIV1: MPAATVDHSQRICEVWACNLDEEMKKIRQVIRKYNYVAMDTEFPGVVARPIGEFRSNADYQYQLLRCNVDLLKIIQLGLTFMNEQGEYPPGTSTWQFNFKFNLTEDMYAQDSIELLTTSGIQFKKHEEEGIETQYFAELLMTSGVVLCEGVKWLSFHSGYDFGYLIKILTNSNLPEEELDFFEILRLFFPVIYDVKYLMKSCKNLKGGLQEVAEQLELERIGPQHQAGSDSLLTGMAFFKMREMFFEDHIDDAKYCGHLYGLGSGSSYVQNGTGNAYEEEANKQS
UniProt Q9H9A5: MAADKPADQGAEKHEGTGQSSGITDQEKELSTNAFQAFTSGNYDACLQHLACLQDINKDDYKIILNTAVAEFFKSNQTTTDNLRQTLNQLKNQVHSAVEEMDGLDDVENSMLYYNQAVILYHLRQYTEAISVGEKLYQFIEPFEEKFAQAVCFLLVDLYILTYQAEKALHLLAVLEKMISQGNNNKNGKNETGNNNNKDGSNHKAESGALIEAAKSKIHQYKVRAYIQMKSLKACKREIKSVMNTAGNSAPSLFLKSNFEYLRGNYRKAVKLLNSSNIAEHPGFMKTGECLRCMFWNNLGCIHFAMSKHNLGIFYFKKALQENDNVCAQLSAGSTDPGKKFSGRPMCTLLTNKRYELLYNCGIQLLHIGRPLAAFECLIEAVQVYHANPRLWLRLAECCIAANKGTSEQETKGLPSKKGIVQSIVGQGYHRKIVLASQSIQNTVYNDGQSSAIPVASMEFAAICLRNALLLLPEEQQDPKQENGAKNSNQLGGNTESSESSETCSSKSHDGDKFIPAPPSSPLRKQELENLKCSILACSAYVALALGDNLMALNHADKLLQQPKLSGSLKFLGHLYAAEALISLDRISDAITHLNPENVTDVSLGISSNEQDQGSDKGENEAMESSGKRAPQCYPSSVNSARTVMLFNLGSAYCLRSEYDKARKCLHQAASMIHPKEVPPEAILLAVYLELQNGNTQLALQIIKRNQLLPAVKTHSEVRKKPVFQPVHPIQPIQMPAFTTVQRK

How the values were obtained:
[1] = target: T1, SBP-tagged mouse CPEB2 (mouse) (UniProt Q812E0); experiment: co-IP; SBP-tagged CPEB precipitated from HeLa lysate with streptavidin beads (3 h, 4 °C; 20 mM Tris-HCl pH 7.5, 150 mM NaCl, 1.5 mM MgCl2, 1 mM DTT, 0.05% NP-40), endogenous partners detected by western blot; no RNase; Fig. 3A, Fig. 7A, and Fig. 3B after 20 nM RMD with or without overexpression of HA-TOB1
T1 sequence: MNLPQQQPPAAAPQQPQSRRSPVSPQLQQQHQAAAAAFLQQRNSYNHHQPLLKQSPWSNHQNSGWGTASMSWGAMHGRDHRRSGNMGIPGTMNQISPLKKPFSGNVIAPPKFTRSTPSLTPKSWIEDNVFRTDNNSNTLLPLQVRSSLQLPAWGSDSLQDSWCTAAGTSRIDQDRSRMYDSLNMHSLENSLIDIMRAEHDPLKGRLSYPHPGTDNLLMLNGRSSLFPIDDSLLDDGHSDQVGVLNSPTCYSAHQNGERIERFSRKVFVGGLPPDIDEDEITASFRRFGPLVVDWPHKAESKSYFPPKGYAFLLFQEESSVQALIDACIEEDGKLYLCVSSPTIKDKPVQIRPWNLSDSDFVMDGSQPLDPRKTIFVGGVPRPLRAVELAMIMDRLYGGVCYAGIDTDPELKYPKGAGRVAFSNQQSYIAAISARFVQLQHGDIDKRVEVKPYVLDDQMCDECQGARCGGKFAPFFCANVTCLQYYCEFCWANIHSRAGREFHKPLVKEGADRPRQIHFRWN

[2] = target: T2, SBP-tagged human CPEB3 (human) (UniProt Q8NE35); experiment: as above
T2 sequence: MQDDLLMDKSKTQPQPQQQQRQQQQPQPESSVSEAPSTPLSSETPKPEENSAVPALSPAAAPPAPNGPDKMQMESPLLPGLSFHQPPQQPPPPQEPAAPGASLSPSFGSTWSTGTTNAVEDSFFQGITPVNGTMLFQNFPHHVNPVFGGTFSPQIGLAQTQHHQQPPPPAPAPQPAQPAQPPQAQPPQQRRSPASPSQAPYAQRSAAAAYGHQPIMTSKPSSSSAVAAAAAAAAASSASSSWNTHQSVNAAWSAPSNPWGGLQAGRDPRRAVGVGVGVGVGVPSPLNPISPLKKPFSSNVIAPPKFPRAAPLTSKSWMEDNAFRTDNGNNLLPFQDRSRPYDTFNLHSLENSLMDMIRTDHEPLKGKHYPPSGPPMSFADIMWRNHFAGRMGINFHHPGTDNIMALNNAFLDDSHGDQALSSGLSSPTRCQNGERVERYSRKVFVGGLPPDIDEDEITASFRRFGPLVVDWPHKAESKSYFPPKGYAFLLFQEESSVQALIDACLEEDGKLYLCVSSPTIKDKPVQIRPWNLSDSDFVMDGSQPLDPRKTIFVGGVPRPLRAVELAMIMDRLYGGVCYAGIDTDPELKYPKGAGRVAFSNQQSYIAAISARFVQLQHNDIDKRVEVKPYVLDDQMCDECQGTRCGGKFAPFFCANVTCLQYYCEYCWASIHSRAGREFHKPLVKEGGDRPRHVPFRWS

[3] = target: SBP-tagged human CPEB1 (human) (UniProt Q9BZB8); experiment: as above
[4] = target: T1, SBP-tagged mouse CPEB2 (mouse); experiment: co-IP; as a1, IP with streptavidin beads in the presence of 26 U RNase A/T1 (Fig. 7A)
[5] = target: T2, SBP-tagged human CPEB3 (human); experiment: as above
[6] = target: SBP-tagged human CPEB1 (human) (UniProt Q9BZB8); experiment: as above
[7] = target: T3, streptavidin binding peptide (SBP)-tagged CPEB4 (human) (UniProt Q17RY0); experiment: co-IP; SBP-tagged CPEB precipitated from HeLa lysate with streptavidin beads (3 h, 4 °C; 20 mM Tris-HCl pH 7.5, 150 mM NaCl, 1.5 mM MgCl2, 1 mM DTT, 0.05% NP-40), endogenous partners detected by western blot; no RNase; Fig. 3A, Fig. 7A, and Fig. 3B after 20 nM RMD with or without overexpression of HA-TOB1
T3 sequence: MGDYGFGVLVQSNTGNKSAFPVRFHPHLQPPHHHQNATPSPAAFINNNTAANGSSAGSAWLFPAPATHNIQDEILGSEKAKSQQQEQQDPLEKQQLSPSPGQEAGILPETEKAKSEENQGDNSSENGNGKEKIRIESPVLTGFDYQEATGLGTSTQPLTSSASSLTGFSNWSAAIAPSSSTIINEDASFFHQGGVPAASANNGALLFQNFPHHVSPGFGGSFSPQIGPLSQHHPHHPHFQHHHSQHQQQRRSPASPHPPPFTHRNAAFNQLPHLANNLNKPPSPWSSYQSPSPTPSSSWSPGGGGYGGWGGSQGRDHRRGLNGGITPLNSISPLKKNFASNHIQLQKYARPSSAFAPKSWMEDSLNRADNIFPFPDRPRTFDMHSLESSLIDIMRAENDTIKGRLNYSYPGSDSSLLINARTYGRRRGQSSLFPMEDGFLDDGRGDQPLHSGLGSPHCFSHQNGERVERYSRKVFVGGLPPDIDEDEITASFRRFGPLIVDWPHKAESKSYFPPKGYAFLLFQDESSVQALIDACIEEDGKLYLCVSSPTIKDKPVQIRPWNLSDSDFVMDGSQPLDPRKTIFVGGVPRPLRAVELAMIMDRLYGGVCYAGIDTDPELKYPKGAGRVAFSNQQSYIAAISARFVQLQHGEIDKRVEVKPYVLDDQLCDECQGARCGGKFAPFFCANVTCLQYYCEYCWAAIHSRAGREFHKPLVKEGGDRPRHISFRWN

Measured: binding

NOT1 (from UniProt A5YKK6 1-2376)
binds: [1] | [2] | [3] | [4] | [5] | [6]

NOT2 (from UniProt Q9NZN8 1-540)
binds: [1] | [2] | [3] | [4] | [5] | [6]

NOT7/CAF1a (from UniProt Q9UIV1 1-285)
binds: [1] | [2] | [3] | [4] | [5] | [6]

NOT10 (from UniProt Q9H9A5 1-744)
binds: [1] | [2] | [3] | [4] | [5] | [6]

B1: TOB1 (protein, UniProt P50616 1-345)
chain: MQLEIQVALNFIISYLYNKLPRRRVNIFGEELERLLKKKYEGHWYPEKPYKGSGFRCIHIGEKVDPVIEQASKESGLDIDDVRGNLPQDLSVWIDPFEVSYQIGEKGPVKVLYVDDNNENGCELDKEIKNSFNPEAQVFMPISDPASSVSSSPSPPFGHSAAVSPTFMPRSTQPLTFTTATFAATKFGSTKMKNSGRSNKVARTSPINLGLNVNDLLKQKAISSSMHSLYGLGLGSQQQPQQQQQPAQPPPPPPPPQQQQQQKTSALSPNAKEFIFPNMQGQGSSTNGMFPGDSPLNLSPLQYSNAFDVFAAYGGLNEKSFVDGLNFSLNNMQYSNQQFQPVMAN
binds: [7]
